Measurements from PMC5681435, “Differential Regulation of G1 CDK Complexes by the Hsp90-Cdc37 Chaperone System” (Cell Reports, 2017).
These are yes or no findings as the source states them, for the method shown. Some binding calls cover weakened binding; strength is not graded here. For part of these data: Tags and fused reporters may be left off the sequences shown.

The chains behind the UniProt entries cited, without tags or fusion partners.
UniProt Q00534: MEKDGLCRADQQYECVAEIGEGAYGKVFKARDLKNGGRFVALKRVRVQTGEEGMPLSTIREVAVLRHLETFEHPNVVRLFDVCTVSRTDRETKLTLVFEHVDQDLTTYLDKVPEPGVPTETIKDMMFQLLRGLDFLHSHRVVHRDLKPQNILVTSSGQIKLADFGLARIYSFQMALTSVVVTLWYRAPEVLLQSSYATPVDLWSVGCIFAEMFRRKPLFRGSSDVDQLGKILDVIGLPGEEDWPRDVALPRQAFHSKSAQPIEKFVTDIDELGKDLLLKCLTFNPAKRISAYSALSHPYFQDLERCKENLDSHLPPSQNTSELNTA
UniProt P11802: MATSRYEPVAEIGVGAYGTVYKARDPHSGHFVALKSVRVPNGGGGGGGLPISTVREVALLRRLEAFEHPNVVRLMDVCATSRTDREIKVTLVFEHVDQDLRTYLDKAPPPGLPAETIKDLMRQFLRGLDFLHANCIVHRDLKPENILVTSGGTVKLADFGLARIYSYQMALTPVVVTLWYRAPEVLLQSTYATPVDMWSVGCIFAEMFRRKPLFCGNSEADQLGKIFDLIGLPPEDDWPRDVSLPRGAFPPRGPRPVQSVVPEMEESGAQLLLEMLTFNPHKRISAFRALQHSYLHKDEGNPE

Assays:
GSTCDK6 (human) [1] = molecular target: GSTCDK6 (human) (UniProt Q00534); experiment: SPR; both purified
GSTCDK4 (human) [2] = molecular target: GSTCDK4 (human) (UniProt P11802); experiment: SPR; both purified
GSTCDK6 (human) [3] = molecular target: GSTCDK6 (human) (UniProt Q00534); experiment: AlphaScreen or HTRF; both purified
[4] = molecular target: GSTCDK4-cyclin D3-p27M ternary complex (UniProt P11802); experiment: AlphaScreen or HTRF; both purified
[5] = molecular target: GSTCDK4-cyclin D1-p27M ternary complex (UniProt P11802); experiment: AlphaScreen or HTRF; both purified
GSTCDK4 (human) [6] = molecular target: GSTCDK4 (human) (UniProt P11802); experiment: AlphaScreen or HTRF; both purified
[7] = molecular target: GSTCDK6-cyclin D1-p27M ternary complex (UniProt Q00534); experiment: AlphaScreen or HTRF; both purified
[8] = molecular target: GSTCDK4-cyclin D3-p21M ternary complex (UniProt P11802); experiment: AlphaScreen or HTRF; both purified

B1: unlabeled Vcyclin (protein, UniProt Q01043 1-254)
chain: MADSPNRLNRAKIDSTTMKDPRVLNNLKLRELLLPKFTSLWEIQTEVTVDNRTILLTWMHLLCESFELDKSVFPLSVSILDRYLCKKQGTKKTLQKIGAACVLIGSKIRTVKPMTVSKLTYLSCDCFTNLELINQEKDILEALKWDTEAVLATDFLIPLCNALKIPEDLWPQLYEAASTTICKALIQPNIALLSPGLICAGGLLTTIETDNTNCRPWTCYLEDLSSILNFSTNTVRTVKDQVSEAFSLYDLEIL
B1 was tested, and the binding (GSTCDK6 (human) [1]) was “binds” and the binding (GSTCDK4 (human) [2]) was “binds”.

B2: unlabeled Kcyclin (protein, UniProt Q77Q36 1-257)
chain: MATANNPPSGLLDPTLCEDRIFYNILEIEPRFLTSDSVFGTFQQSLTSHMRKLLGTWMFSVCQEYNLEPNVVALALNLLDRLLLIKQVSKEHFQKTGSACLLVASKLRSLTPISTSSLCYAAADSFSRQELIDQEKELLEKLAWRTEAVLATDVTSFLLLKLLGGSQHLDFWHHEVNTLITKALVDPKTGSLPASIISAAGCALLVPANVIPQDTHSGGVVPQLASILGCDVSVLQAAVEQILTSVSDFDLRILDSY
B2 was tested, and the binding (GSTCDK6 (human) [1]) was “binds” and the binding (GSTCDK4 (human) [2]) was “binds”.

B3: biotinylated C-terminally Avi-tagged Cdc37 (protein, UniProt Q16543 1-378)
chain: MVDYSVWDHIEVSDDEDETHPNIDTASLFRWRHQARVERMEQFQKEKEELDRGCRECKRKVAECQRKLKELEVAEGGKAELERLQAEAQQLRKEERSWEQKLEEMRKKEKSMPWNVDTLSKDGFSKSMVNTKPEKTEEDSEEVREQKHKTFVEKYEKQIKHFGMLRRWDDSQKYLSDNVHLVCEETANYLVIWCIDLEVEEKCALMEQVAHQTIVMQFILELAKSLKVDPRACFRQFFTKIKTADRQYMEGFNDELEAFKERVRGRAKLRIEKAMKEYEEEERKKRLGPGGLDPVEVYESLPEELQKCFDVKDVQMLQDAISKMDPTDAKYHMQRCIDSGLWVPNSKASEAKEGEEAGPGDPLLEAVPKTGDEKDVSV
modifications: biotin (on the Avi tag)
B3 was tested, and the binding (GSTCDK6 (human) [3]) was “binds”, the binding [4] was “no binding” and the binding [5] was “no binding”. The binding (GSTCDK4 (human) [6]) was “binds”, the binding [7] was “no binding” and the binding [8] was “no binding”.

B4: Cdc37 (analyte of the SPR titrations) (protein, UniProt Q16543 1-378)
chain: B3 chain
With B4 the binding (GSTCDK6 (human) [1]) was “binds” and the binding (GSTCDK4 (human) [2]) was “binds”.
